The data set has as its system gene expression in amygdala, frontal cortex, hippocampus. The data set is described as follows: RNA-sequencing of rat brain areas. It counts as in vivo. Particulars: for share of regulated genes also regulated by the other drug: FIG. 29E; for number of significantly regulated genes: Example 27, 10 mg/kg IP; for number of differentially regulated genes: 10 mg/kg IP, 8 hours post-dose, >25% change, padj <0.1.

Molecules are shown by their SMILES.

For the compound `CNC(C)Cc1ccc2c(c1)OCO2` (racemic) [MDMA, 3,4-Methylenedioxymethamphetamine], under “amygdala, Example 27”, the “downregulated genes (MDMA only)” value stood at 774 genes and the “upregulated genes (MDMA only)” value turned out to be 539 genes. Further, where the note is “amygdala”, the “share of regulated genes also regulated by the other drug” value came to 7%. In addition, the “more genes regulated than methylone” value (frontal cortex, Example 27) is about 72%. For the setting “frontal cortex”, the “number of significantly regulated genes” value turned out to be 825 genes.
For the compound `CNC(C)C(=O)c1ccc2c(c1)OCO2` (stereo not shown) [methylone, 3,4-methylenedioxy-N-methylcathinone], for the setting “amygdala”, the “share of regulated genes also regulated by the other drug” value came to 87% and the “number of differentially regulated genes” value is 121 genes. Further, under “frontal cortex”, the “number of significantly regulated genes” value is on record as 480 genes and the “number of differentially regulated genes” value is reported as 471 genes. Further, where the note is “hippocampus”, the “number of differentially regulated genes” value was 12 genes.

Values taken from US20250332139A1, “PS[…] AND THEIR USE FOR TREATING […] AND NE[…] DISORDERS” (Transcend Therapeutics, Inc., priority 2021, published 2025).
